Source: the supplement of paper PMC11732987, “Enantioselective OTUD7B fragment discovery through chemoproteomics screening and high-throughput optimisation” (Communications Chemistry, 2025)
Some of the results follow. The data scatter; read single values as rough.

Amino acid sequences for entries named in this document (tags omitted). A change or cut given only in a name is not applied to a line headed by its entry. Residues count along the entry.
UniProt Q99622: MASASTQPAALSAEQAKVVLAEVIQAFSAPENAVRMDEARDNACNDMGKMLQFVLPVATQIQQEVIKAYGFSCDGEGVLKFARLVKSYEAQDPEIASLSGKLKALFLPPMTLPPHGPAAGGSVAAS
UniProt Q9NZ63: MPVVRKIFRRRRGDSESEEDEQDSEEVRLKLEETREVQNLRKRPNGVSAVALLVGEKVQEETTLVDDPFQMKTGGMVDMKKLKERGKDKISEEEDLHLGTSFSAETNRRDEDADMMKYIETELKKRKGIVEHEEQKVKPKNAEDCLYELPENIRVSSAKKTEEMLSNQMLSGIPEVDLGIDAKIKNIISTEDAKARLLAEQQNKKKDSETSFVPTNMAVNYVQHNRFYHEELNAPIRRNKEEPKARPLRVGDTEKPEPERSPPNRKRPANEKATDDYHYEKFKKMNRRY
UniProt P43251: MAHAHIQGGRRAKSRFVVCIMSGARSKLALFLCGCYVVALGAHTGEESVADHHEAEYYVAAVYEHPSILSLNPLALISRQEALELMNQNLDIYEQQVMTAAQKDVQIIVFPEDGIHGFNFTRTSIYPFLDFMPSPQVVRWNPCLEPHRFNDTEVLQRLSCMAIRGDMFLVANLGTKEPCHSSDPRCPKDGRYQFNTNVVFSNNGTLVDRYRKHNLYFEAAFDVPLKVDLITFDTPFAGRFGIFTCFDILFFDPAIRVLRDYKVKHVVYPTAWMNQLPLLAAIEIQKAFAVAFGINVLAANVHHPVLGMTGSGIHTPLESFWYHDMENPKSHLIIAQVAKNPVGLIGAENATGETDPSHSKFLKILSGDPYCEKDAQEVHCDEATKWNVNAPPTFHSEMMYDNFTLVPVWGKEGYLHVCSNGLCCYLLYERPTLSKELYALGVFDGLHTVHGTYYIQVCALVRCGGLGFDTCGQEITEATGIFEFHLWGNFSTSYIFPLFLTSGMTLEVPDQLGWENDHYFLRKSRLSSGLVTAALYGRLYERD
UniProt Q9Y6J0: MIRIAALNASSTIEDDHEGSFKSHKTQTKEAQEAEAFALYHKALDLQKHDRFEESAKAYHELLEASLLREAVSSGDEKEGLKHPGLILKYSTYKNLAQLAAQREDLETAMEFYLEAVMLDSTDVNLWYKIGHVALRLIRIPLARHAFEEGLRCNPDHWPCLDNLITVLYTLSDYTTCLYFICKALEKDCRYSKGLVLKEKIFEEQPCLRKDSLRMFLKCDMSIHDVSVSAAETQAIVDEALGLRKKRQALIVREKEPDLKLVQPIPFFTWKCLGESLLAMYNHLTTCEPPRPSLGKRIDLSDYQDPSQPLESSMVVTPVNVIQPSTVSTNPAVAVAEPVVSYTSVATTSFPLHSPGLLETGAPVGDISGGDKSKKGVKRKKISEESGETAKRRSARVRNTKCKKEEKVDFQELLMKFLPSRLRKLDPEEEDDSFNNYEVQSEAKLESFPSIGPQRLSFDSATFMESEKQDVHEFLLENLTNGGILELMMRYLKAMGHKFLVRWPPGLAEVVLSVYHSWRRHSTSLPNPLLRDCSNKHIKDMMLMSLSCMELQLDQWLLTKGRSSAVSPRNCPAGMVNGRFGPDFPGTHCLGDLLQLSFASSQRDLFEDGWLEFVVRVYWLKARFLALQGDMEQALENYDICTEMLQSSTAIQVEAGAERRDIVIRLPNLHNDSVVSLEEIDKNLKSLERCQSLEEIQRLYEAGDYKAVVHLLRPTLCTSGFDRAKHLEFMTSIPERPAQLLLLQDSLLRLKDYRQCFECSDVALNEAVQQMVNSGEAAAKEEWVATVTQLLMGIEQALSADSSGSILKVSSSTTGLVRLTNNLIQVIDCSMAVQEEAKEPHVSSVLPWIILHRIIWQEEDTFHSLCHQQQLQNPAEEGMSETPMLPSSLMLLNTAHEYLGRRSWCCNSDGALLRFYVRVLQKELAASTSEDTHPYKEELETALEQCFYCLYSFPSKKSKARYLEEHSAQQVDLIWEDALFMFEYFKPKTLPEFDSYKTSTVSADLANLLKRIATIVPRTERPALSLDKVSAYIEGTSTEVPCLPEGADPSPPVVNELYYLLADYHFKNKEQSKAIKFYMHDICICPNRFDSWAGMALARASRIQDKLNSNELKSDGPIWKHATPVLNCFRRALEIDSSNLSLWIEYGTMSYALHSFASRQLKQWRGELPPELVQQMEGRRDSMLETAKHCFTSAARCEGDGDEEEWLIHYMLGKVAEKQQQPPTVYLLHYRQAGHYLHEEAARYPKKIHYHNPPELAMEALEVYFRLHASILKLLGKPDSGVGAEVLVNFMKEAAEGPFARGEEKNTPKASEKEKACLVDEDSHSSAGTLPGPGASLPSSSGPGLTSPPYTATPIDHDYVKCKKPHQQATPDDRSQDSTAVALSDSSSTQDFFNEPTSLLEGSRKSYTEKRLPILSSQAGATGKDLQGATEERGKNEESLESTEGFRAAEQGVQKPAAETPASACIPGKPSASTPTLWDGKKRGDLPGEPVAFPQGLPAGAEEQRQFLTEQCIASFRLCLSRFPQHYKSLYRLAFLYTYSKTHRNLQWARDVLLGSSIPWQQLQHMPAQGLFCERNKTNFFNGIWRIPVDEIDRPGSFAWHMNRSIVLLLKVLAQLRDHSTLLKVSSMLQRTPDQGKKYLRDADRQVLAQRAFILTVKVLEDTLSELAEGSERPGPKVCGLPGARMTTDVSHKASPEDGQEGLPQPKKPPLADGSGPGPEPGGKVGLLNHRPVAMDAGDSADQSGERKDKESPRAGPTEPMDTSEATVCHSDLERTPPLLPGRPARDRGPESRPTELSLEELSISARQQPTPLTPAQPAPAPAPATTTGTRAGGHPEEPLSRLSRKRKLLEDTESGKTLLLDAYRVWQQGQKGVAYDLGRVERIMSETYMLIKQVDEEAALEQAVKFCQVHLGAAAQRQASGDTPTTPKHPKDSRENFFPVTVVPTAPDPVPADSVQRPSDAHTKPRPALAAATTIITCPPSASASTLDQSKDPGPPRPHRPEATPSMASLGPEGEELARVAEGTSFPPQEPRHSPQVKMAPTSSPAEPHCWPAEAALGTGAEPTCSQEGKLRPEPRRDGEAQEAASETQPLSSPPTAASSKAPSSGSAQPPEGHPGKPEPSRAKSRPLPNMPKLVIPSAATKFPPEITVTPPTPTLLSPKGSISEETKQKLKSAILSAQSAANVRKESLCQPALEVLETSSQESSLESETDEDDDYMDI
UniProt O75808, 250-272: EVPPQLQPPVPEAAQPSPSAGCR
UniProt Q9UKL3: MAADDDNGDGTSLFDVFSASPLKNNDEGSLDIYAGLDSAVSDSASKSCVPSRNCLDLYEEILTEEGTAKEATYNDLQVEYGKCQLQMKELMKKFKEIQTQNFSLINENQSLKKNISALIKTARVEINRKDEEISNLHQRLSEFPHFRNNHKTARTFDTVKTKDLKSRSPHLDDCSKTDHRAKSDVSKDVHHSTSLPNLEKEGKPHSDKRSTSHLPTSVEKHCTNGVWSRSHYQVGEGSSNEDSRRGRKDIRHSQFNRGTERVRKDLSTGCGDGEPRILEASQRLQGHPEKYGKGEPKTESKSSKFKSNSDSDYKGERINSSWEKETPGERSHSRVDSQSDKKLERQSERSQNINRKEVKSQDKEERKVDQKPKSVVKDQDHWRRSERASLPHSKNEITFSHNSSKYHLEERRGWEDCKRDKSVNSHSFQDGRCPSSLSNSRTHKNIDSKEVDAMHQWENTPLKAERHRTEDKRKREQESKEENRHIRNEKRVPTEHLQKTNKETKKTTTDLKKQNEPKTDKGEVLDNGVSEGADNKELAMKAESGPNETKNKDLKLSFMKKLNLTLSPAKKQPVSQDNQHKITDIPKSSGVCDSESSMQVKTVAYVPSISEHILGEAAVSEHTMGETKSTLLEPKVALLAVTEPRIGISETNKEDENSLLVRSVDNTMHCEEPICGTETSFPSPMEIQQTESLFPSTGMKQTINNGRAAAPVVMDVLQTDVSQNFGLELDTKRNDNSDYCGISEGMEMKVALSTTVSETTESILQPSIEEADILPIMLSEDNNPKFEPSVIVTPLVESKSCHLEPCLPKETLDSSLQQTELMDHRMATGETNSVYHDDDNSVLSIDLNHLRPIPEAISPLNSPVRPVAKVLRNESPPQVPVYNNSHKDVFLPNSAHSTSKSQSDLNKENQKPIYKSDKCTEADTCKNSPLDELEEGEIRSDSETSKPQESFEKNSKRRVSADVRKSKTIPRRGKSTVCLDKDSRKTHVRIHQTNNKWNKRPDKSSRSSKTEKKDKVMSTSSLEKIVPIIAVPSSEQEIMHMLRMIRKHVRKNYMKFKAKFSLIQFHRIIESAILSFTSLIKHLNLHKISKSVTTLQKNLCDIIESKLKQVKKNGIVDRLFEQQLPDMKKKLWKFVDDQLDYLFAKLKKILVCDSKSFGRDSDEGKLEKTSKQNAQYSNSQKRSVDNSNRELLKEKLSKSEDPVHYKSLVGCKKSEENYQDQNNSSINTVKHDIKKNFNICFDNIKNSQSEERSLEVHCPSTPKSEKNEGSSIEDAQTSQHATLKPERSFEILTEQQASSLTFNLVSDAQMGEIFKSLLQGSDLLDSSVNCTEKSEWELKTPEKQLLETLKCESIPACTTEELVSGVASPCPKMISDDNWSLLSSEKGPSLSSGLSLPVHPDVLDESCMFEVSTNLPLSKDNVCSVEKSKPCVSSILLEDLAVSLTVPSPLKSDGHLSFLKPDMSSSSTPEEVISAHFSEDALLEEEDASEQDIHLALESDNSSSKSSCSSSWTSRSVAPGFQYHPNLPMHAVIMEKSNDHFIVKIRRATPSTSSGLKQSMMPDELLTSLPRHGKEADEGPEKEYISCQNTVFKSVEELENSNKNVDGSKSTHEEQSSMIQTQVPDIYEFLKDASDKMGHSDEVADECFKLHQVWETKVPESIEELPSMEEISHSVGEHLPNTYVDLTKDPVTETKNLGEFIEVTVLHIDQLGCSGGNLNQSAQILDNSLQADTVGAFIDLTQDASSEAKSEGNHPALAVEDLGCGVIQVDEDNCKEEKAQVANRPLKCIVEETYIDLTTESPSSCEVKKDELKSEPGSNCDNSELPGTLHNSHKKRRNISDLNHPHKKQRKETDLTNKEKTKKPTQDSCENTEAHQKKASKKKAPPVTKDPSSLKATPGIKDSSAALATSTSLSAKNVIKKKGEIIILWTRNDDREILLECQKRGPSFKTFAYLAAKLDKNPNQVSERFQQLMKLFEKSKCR
UniProt O43439: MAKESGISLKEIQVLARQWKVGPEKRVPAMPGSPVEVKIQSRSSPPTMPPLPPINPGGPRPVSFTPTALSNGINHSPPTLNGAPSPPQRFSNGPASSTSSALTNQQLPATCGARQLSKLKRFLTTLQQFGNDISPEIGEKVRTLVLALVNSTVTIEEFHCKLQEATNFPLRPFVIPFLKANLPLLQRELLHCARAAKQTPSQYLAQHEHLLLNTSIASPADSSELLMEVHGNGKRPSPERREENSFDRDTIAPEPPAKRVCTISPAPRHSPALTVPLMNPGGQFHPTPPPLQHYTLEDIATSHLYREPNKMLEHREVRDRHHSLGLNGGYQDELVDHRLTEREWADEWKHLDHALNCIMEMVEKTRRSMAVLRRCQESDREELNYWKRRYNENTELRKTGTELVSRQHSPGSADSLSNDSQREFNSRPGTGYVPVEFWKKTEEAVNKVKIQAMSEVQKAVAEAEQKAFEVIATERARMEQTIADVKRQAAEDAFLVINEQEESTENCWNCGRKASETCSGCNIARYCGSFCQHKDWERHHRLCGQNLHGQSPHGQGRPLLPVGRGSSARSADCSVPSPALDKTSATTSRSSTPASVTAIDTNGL
UniProt P20810: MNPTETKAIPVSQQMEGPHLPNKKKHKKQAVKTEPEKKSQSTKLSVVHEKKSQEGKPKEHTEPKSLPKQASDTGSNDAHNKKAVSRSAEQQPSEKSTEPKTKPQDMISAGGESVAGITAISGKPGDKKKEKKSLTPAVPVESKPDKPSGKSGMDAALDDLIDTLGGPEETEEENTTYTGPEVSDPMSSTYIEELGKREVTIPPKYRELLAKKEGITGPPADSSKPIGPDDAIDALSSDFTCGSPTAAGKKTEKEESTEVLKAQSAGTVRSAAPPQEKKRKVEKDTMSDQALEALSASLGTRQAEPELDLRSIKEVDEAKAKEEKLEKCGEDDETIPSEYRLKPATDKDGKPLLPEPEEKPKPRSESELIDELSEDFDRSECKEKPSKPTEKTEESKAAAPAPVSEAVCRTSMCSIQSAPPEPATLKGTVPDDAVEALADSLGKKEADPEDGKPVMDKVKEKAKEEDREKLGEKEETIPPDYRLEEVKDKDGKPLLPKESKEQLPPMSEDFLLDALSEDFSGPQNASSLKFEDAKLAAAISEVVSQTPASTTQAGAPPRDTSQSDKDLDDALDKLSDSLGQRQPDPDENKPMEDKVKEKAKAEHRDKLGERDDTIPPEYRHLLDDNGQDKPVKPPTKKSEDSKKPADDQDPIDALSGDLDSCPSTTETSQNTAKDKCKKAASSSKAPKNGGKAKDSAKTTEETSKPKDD
UniProt Q49AR2, 182-204: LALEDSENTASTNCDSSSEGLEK

compound: ClCC(=O)N[C@H]1CCCc2ccccc12; assay: log2 mean competition ratio of IA-DTB cysteine labelling (DMSO/compound) (log2 ratio); higher = stronger cysteine engagement by compound; conditions: 200 µM; treatment time: 4 h; cell line lysate: HEK293T
Method: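 IA-DTB competitive cysteine chemoproteomics in HEK293T RIPA lysate. Lysates were treated with compound 29 or 30 at 50 or 200 µM for 4 h, then IA-DTB (500 µM, 1 h), trypsin-digested, NeutrAvidin-enriched and analysed by diaPASEF. Competition ratio = intensity DMSO / intensity compound (n=4 treated, n=64 DMSO); binding: mean log2 CR ≥ 1 and p ≤ 0.05 plus QC filters. Target is the cysteine site.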

| Target | log2 mean competition ratio |
| --- | --- |
| C12orf57 C44 (UniProt Q99622) | 0.609 |
| C9orf78 C145 (UniProt Q9NZ63) | -0.0162 |
| BRIP1 C1164 (UniProt Q9BX63) | 0.00409 |
| BPHL C225 (UniProt Q86WA6) | 0.0337 |
| BPTF C2888 | 0.113 |
| BTD C371 (UniProt P43251) | 0.215 |
| C2orf72 C244 | 0.189 |
| CAND2 C240 (UniProt O75155) | -0.0633 |
| BRAT1 C308 (UniProt Q6PJG6) | -0.26 |
| BRIP1 C42 (UniProt Q9BX63) | 0.33 |
| C1orf112 C559 (UniProt Q9NSG2) | -0.0272 |
| CAMKMT C281 (UniProt Q7Z624) | 0.371 |
| CABIN1 C1197 (UniProt Q9Y6J0) | 0.0359 |
| BOD1L1 C74 (UniProt Q8NFC6) | 0.215 |
| CAPN15 C271 (UniProt O75808) | 0.43 |
| CASP8AP2 C1100 (UniProt Q9UKL3) | -0.677 |
| BOD1L1 C749 (UniProt Q8NFC6) | 0.178 |
| CBFA2T2 C261 (UniProt O43439) | 0.471 |
| C15orf39 C50 (UniProt Q6ZRI6) | 0.0799 |
| BRAP C110 (UniProt Q7Z569) | -0.114 |
| BPTF C20 | -0.0846 |
| BRD8 C142 (UniProt Q9H0E9) | 0.143 |
| C1orf21 C114 | 0.104 |
| CAMSAP1 C719 (UniProt Q5T5Y3) | 0.49 |
| BRMS1L C127 (UniProt Q5PSV4) | -0.0667 |
| C2CD5 C449 (UniProt Q86YS7) | -0.0314 |
| CAST C413 (UniProt P20810) | 0.0558 |
| C5orf22 C195 (UniProt Q49AR2) | -0.492 |

Another view of some results above.
Target	log2 mean competition ratio
C2orf72 C244	0.189
CAND2 C240 (UniProt O75155)	-0.0633
